Data as given in PubChem BioAssay AID1671195 (Yale University, 2021).

Test: 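Knockdowns that increase or decrease uptake of fluorescent LDL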 (primary screen)
Cells: human Huh7 hepatoma cells
Reagents: siRNA pool against human genes, 18 nM
Timing: about 2 to 2.5 days of knockdown, then 8 h LDL uptake
Conditions: DiI-labelled LDL at 30 µg/ml for 8 h, in lipoprotein-deficient serum medium
Measurement: 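Fluorescent LDL signal imaged in cells, scaled to the plate median, robust z-score for each replicate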
Reading the numbers: robust z-score: higher = more LDL uptake after knockdown
Hit rule: 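a gene counts as active if at least two replicate z-scores exceed ±2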
This is one part, drawn at random, of about 22,000 deposited reagents. About 1,510 of them (6.9%) count as active. 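Active includes knockdowns raising or lowering LDL uptake; positive z-scores mean more uptake, negative mean less.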

OASL
- robust z-score, replicate 1: -0.289
- robust z-score, replicate 2: -0.226
- robust z-score, replicate 3: -0.237
- call: inactive

DNAJB5
- robust z-score, replicate 1: -0.351
- robust z-score, replicate 2: -0.225
- robust z-score, replicate 3: -0.633
- call: inactive

GALK1
- robust z-score, replicate 1: 1.57
- robust z-score, replicate 2: 1.37
- robust z-score, replicate 3: 0.625
- call: inactive

LOC389147 (retired record)
- robust z-score, replicate 1: -0.271
- robust z-score, replicate 2: -0.624
- robust z-score, replicate 3: -0.0891
- call: inactive

IL1RN
- robust z-score, replicate 1: 0.743
- robust z-score, replicate 2: 0.664
- robust z-score, replicate 3: 0.285
- call: inactive

DMPK
- robust z-score, replicate 1: 1.27
- robust z-score, replicate 2: -0.134
- robust z-score, replicate 3: -0.228
- call: inactive

CXCR2
- robust z-score, replicate 1: -0.907
- robust z-score, replicate 2: -1.14
- robust z-score, replicate 3: -1.46
- call: inactive

LOC390613 (retired record)
- robust z-score, replicate 1: -1.28
- robust z-score, replicate 2: -1.45
- robust z-score, replicate 3: -1.46
- call: inactive

MAP9
- robust z-score, replicate 1: 0.0508
- robust z-score, replicate 2: -0.666
- robust z-score, replicate 3: 0.00569
- call: inactive

Reformatted: 2 of the entries above.
{"Gene": "CXCR2", "robust z-score, replicate 1": -0.907, "robust z-score, replicate 2": -1.14, "robust z-score, replicate 3": -1.46, "call": "inactive"}
{"Gene": "LOC390613 (retired record)", "robust z-score, replicate 1": -1.28, "robust z-score, replicate 2": -1.45, "robust z-score, replicate 3": -1.46, "call": "inactive"}

Additional entries:
LOC137485 (retired record)
- robust z-score, replicate 1: 1.2
- robust z-score, replicate 2: -0.401
- robust z-score, replicate 3: 0.525
- call: inactive

GTPBP8
- robust z-score, replicate 1: 0.244
- robust z-score, replicate 2: -1.22
- robust z-score, replicate 3: 0.177
- call: inactive

NRIP2
- robust z-score, replicate 1: 1.57
- robust z-score, replicate 2: 0.478
- robust z-score, replicate 3: 1.49
- call: inactive

NIPSNAP2
- robust z-score, replicate 1: -0.273
- robust z-score, replicate 2: -0.618
- robust z-score, replicate 3: -0.921
- call: inactive

ANKRD11
- robust z-score, replicate 1: 3.53
- robust z-score, replicate 2: 0.919
- robust z-score, replicate 3: 1.47
- call: inactive

PLA2G6
- robust z-score, replicate 1: 0.896
- robust z-score, replicate 2: 1.21
- robust z-score, replicate 3: 0.731
- call: inactive

TDRD1
- robust z-score, replicate 1: 0.0348
- robust z-score, replicate 2: 0.723
- robust z-score, replicate 3: -0.334
- call: inactive
